The list shows a part of the results.
Experiments:
Assay in all cases: log2 fold change, soluble protein after heating vs DMSO (PISA); higher = thermal stabilisation; K562 lysate, 10 uM; active = over 0.2 and 3.5 SD of the protein, either way, in both replicates (recomputed)
[1] = compound: C1=CC=C(C=C1)[C@H](COC2=CC3=C(C=C2)NC(=O)N3)NC(=O)C4=CC=CN(C4=O)CC5=CC(=C(C=C5)F)F
How it was run: (§1)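 The values are log-two fold changes in thermal stability compared with solvent controls and come from duplicates. They were obtained by TMTpro 16plex LC-MS/MS, with channel sums equalised, on the supernatant after 21,000xg for 90 min. That supernatant came from crude K562 extract at 1 mg/mL protein treated with 10 μM compound for 30 min, heated for 3 min across 48°C-58°C, pooled and brought to 0.5% NP-40 at 4°C.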

Chains of the proteins cited; added tags and fusions are not shown. Lines headed by an entry give the natural chain unless they say otherwise; changes in a name come on top.
UniProt O15162: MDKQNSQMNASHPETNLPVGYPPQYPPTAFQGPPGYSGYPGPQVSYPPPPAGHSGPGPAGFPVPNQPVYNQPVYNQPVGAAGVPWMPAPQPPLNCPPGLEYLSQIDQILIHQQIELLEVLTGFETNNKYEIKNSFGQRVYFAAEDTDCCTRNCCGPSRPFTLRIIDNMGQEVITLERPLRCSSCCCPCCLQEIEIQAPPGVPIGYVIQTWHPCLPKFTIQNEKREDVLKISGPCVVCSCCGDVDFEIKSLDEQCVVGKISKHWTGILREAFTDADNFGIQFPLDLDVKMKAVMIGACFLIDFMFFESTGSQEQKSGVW
UniProt O75145: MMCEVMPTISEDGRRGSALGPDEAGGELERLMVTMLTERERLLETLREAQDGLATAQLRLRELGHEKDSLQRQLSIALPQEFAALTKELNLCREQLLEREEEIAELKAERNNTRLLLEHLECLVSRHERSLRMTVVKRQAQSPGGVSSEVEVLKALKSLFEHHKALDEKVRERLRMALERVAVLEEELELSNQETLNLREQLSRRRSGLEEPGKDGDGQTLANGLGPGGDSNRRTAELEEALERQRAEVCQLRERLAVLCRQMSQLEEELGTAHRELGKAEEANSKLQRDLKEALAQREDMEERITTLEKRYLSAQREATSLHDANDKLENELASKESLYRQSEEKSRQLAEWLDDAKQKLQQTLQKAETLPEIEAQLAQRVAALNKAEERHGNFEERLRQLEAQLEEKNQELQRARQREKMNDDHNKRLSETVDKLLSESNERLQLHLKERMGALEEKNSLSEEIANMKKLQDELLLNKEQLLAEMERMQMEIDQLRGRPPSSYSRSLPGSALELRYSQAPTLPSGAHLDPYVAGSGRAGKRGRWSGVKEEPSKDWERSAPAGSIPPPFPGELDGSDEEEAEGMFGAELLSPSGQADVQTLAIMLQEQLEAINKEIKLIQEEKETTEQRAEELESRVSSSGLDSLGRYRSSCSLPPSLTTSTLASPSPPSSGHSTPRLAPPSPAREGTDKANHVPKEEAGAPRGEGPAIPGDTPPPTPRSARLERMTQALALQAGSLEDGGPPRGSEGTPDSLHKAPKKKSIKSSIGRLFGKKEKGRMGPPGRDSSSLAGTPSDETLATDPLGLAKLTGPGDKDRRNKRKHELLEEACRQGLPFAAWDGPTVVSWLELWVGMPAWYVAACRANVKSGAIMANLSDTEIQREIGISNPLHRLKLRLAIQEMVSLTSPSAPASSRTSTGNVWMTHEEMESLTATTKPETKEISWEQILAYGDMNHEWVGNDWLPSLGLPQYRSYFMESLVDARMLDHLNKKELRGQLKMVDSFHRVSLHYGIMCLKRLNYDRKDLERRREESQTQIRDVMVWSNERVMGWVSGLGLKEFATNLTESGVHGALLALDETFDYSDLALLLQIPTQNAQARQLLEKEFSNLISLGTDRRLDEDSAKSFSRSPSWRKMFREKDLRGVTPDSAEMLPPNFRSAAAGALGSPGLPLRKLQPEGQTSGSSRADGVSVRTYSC
UniProt Q9NP80: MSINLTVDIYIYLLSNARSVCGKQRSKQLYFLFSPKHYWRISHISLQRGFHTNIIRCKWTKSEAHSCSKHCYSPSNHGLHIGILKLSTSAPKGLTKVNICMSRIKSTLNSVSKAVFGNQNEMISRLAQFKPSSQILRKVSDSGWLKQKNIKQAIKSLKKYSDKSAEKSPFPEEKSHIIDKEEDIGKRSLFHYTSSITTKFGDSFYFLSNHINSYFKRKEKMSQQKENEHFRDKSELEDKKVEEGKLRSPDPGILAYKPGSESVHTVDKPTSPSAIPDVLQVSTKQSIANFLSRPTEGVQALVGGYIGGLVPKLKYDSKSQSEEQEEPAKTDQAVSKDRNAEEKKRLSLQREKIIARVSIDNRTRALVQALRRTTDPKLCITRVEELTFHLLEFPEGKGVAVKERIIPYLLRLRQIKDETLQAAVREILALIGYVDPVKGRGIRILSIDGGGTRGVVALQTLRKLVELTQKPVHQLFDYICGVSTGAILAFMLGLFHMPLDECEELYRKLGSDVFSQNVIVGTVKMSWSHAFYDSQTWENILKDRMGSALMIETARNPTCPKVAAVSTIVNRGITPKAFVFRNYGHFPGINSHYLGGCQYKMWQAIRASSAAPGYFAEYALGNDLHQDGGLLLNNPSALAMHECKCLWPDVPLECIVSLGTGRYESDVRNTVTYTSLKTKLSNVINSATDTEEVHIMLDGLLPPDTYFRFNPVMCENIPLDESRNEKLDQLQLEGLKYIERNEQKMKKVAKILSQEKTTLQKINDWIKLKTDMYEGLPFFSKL
UniProt P54278: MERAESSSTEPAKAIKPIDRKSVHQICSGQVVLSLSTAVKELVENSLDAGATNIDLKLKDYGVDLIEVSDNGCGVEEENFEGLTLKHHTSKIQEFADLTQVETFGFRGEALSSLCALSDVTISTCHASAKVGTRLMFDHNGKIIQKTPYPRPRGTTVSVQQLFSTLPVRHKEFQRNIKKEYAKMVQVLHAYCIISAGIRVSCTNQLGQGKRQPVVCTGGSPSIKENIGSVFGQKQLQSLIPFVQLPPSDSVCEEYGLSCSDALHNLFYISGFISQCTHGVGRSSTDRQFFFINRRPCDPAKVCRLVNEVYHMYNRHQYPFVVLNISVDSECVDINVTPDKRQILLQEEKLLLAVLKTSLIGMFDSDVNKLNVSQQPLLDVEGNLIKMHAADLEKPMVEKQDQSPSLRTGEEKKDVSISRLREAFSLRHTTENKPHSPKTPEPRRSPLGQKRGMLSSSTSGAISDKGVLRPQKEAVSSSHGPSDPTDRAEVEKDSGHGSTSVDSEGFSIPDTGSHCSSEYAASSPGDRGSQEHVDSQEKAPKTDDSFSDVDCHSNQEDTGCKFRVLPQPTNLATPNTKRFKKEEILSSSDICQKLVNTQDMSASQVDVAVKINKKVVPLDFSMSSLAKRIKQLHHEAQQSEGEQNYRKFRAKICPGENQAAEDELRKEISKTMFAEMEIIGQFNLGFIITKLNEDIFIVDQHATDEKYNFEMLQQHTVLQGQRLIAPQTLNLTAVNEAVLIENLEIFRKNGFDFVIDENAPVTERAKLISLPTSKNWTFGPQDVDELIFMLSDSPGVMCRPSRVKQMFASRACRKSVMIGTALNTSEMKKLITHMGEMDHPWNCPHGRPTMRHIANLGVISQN
UniProt P62937, whole entry, looked up: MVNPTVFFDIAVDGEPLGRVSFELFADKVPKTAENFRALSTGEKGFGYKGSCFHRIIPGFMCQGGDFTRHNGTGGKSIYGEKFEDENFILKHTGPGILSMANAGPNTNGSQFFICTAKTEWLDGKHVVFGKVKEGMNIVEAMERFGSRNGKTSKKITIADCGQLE
UniProt Q07864, whole entry, looked up: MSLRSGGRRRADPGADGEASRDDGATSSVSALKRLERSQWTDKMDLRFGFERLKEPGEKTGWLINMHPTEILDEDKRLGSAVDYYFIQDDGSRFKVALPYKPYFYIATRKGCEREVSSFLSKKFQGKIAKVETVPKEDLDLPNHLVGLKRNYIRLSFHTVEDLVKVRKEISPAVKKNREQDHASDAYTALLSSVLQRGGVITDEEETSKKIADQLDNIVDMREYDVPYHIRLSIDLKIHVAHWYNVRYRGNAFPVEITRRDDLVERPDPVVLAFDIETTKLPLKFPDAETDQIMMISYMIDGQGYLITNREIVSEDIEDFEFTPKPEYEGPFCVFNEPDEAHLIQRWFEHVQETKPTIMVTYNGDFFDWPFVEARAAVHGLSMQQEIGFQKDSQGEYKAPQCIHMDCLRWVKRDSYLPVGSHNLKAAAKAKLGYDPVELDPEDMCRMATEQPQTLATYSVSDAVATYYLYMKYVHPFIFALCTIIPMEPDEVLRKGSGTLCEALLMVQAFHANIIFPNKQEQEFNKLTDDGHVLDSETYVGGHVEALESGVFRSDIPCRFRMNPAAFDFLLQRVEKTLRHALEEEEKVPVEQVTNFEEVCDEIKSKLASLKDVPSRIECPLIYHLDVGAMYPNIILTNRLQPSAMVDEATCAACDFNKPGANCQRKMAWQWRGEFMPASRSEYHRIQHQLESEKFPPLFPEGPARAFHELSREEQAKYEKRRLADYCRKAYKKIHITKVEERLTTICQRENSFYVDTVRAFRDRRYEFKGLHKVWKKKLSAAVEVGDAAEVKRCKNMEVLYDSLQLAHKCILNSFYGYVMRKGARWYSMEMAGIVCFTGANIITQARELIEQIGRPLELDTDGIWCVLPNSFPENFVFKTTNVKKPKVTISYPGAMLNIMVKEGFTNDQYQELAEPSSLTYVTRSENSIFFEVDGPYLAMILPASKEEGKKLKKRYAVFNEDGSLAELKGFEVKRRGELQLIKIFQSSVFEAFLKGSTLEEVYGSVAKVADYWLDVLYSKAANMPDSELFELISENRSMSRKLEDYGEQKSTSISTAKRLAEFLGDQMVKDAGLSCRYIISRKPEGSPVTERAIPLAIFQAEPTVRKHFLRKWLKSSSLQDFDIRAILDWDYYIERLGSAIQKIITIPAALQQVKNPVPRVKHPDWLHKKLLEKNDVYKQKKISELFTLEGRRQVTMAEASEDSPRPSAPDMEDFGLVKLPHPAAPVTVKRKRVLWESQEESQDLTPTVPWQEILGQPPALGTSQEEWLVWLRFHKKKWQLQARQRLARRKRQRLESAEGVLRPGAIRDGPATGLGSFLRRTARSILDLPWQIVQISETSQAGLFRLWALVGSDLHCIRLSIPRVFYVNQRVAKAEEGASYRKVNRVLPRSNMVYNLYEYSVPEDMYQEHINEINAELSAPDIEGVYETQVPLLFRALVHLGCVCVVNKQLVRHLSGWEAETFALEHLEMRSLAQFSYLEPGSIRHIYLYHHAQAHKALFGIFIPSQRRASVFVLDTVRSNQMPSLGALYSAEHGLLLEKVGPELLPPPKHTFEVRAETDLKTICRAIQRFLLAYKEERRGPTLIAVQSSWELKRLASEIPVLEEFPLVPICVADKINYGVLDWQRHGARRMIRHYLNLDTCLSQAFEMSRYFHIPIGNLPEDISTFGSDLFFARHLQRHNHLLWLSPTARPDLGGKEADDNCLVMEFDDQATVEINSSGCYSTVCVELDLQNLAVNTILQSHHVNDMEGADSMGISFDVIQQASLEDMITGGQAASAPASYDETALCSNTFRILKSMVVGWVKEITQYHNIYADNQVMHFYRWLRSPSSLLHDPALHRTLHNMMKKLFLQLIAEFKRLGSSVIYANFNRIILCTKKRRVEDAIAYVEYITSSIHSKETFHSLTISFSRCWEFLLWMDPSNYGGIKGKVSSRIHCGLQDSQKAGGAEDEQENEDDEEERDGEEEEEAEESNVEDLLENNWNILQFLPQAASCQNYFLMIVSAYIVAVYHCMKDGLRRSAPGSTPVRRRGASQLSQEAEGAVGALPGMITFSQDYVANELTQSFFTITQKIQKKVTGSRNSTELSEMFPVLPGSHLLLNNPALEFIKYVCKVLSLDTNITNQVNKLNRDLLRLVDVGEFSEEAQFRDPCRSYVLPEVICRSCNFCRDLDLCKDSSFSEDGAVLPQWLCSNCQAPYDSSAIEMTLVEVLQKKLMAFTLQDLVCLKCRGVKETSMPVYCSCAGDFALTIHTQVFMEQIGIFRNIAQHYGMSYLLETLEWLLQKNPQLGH
UniProt Q9BY77: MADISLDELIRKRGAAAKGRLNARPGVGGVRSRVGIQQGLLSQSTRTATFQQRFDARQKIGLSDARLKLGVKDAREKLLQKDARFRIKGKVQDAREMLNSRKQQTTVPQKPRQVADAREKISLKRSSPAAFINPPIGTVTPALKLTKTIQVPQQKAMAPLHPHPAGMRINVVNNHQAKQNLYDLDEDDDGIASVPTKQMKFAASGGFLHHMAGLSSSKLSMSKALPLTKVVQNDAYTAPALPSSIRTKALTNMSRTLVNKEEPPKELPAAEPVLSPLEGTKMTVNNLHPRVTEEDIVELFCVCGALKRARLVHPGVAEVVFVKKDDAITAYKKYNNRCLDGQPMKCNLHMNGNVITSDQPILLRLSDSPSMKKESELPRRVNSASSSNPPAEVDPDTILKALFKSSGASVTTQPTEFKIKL
UniProt Q8TD55: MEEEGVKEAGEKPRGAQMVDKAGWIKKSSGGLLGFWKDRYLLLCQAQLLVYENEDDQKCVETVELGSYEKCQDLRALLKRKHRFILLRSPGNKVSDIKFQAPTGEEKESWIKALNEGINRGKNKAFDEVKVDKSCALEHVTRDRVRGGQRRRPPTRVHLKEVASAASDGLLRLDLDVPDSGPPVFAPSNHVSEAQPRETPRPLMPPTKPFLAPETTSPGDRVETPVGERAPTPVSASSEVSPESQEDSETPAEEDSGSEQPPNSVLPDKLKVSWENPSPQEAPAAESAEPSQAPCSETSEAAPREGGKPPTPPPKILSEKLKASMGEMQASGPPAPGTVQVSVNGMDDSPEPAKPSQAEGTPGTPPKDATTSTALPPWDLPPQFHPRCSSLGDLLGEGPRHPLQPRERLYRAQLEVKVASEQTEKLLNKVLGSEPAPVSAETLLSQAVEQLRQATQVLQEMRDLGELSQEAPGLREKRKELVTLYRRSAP

[2] = compound: CC1=C(SC2=C1C(=N[C@H](C3=NN=C(N32)C)CC(=O)N)C4=CC=C(C=C4)Cl)C
How it was run: as §1

[3] = compound: CC1=C2C(=CC=C1)N=C(N(C2=O)C3=CC=CC=C3C)CN4C=NC5=C(N=CN=C54)N
How it was run: as §1

[4] = compound: Cc1sc2c(c1C)C(c1ccc(Cl)cc1)=N[C@@H](CC(=O)OC(C)(C)C)c1nnc(C)n1-2
How it was run: as §1

[5] = compound: c1ccc([C@@H]2C[C@H]2NC2CCNCC2)cc1
How it was run: as §1

Measured: log2 fold change

PLPBP (UniProt O94903)
inactive: [1] -0.011 | [2] 0.019 | [3] -0.003 | [4] 0.03 | [5] 0.048

PMVK (UniProt Q15126)
inactive: [1] -0.054 | [2] 0.001 | [3] 0.011 | [4] 0.061 | [5] -0.054

POLR3A (UniProt O14802)
inactive: [1] 0.009 | [2] 0.028 | [3] -0.001 | [4] 0.006 | [5] -0.039

PLOD3 (UniProt O60568)
inactive: [1] -0.024 | [2] 0.001 | [3] 0.012 | [4] 0.008 | [5] -0.004

POLD3 (UniProt Q15054)
inactive: [1] -0.004 | [2] 0.002 | [3] 0.019 | [4] 0 | [5] 0.034

PLSCR1 (UniProt O15162)
inactive: [1] 0.14 | [2] 0.009 | [3] 0.035 | [4] -0.074 | [5] -0.07

PPFIA3 (UniProt O75145)
inactive: [1] 0.106 | [2] 0.14 | [3] 0.012 | [4] -0.08 | [5] 0.076

PMPCB (UniProt O75439)
inactive: [1] -0.004 | [2] 0.031 | [3] -0.017 | [4] 0.003 | [5] 0.007

PPAN isoform 3 (UniProt Q9NQ55)
inactive: [1] 0.011 | [2] 0.006 | [3] 0.019 | [4] -0.008 | [5] 0.006

POLR3K (UniProt Q9Y2Y1)
inactive: [1] 0.077 | [2] -0.01 | [3] -0.023 | [4] -0.092 | [5] -0.005

POLR2D (UniProt O15514)
inactive: [1] 0.027 | [2] -0.09 | [3] 0.074 | [4] -0.081 | [5] -0.02

POMGNT1 isoform 2 (UniProt Q8WZA1)
inactive: [1] -0.072 | [2] 0.015 | [3] -0.027 | [4] -0.097 | [5] -0.04

PPCDC (UniProt Q96CD2)
inactive: [1] -0.02 | [2] 0.034 | [3] -0.054 | [4] -0.074 | [5] -0.191

POLR2M (UniProt Q6EEV4)
inactive: [1] 0.01 | [2] 0.042 | [3] -0.084 | [4] 0.132 | [5] 0.012

Two entries picked at random from those above:
POLR3K (UniProt Q9Y2Y1)
inactive: [1] 0.077 | [2] -0.01 | [3] -0.023 | [4] -0.092 | [5] -0.005

POMGNT1 isoform 2 (UniProt Q8WZA1)
inactive: [1] -0.072 | [2] 0.015 | [3] -0.027 | [4] -0.097 | [5] -0.04

The list continues.

PNPLA8 (UniProt Q9NP80)
inactive: [1] -0.249 | [2] -0.002 | [3] 0.059 | [4] 0.02 | [5] -0.015

PMS2 (UniProt P54278)
inactive: [1] -0.021 | [2] 0.005 | [3] 0.024 | [4] -0.031 | [5] 0.039

PPIA (UniProt P62937)
inactive: [1] -0.02 | [2] -0.014 | [3] 0.011 | [4] 0.013 | [5] 0.004

POLE (UniProt Q07864)
inactive: [1] -0.028 | [2] -0.045 | [3] -0.019 | [4] -0.013 | [5] 0

POLDIP3 (UniProt Q9BY77)
inactive: [1] 0.116 | [2] -0.067 | [3] 0.116 | [4] 0.096 | [5] -0.1

PNN (UniProt Q9H307)
inactive: [1] 0.017 | [2] -0.036 | [3] 0.029 | [4] 0.031 | [5] -0.031

POLR1E (UniProt Q9GZS1)
inactive: [1] -0.016 | [2] -0.046 | [3] 0.005 | [4] -0.019 | [5] 0.031

PLEKHO2 (UniProt Q8TD55)
inactive: [1] -0.158 | [2] 0.077 | [3] -0.076 | [4] -0.107 | [5] 0.043

POLD1 (UniProt P28340)
inactive: [1] 0.026 | [2] 0.003 | [3] 0.011 | [4] 0.03 | [5] 0.042

PNKP (UniProt Q96T60)
inactive: [1] -0.03 | [2] 0.068 | [3] 0.097 | [4] -0.079 | [5] -0.179
